Laboratory results taken from article PMC6392097.

Protein sequences, listed by entry. Tags and fused reporters are not part of them.
UniProt O77059: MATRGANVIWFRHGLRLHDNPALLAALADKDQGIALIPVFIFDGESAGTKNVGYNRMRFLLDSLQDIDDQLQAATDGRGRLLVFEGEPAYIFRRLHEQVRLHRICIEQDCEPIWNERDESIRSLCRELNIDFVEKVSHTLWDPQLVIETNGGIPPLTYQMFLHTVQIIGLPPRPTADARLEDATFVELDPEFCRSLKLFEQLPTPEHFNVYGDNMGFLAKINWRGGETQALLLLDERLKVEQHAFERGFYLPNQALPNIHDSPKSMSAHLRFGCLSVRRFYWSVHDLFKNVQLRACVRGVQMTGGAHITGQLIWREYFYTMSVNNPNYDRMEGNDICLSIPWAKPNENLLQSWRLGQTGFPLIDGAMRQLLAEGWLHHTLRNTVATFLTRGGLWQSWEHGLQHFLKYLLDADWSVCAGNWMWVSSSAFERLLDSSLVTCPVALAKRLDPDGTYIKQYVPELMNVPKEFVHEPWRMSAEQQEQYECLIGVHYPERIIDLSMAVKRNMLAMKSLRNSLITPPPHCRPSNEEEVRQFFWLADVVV
UniProt Q9VHP0: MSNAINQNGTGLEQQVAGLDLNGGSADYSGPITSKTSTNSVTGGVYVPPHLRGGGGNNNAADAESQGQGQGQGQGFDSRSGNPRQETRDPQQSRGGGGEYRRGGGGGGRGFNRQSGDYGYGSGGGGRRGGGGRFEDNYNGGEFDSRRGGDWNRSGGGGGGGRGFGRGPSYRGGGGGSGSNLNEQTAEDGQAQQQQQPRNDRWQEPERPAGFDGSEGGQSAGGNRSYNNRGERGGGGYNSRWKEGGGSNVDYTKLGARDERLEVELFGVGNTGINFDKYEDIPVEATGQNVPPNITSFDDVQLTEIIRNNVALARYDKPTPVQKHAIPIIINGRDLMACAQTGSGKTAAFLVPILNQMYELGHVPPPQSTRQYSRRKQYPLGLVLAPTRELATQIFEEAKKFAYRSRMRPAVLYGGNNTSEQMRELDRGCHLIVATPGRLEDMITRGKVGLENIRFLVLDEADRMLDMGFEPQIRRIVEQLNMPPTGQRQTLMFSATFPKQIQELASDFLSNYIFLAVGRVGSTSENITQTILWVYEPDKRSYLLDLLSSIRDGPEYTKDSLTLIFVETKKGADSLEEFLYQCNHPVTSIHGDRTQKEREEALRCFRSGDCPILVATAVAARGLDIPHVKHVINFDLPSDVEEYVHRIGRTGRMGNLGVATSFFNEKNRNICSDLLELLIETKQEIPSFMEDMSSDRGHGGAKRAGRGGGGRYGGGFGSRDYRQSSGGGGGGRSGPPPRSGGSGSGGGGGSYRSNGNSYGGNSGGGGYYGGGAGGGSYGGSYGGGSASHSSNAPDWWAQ

How the values were obtained:
[1] = molecular target: hemagglutinin (HA)-tagged form of dCRY (Drosophila melanogaster) (UniProt O77059); experiment: affinity purification with mass spectrometry; head extracts of HACRY-overexpressing flies, anti-HA co-immunoprecipitation, Coomassie-stained bands digested in-gel, LC-MS/MS (ESI-QTOF, MASCOT); flies in 12:12 LD collected at ZT24 in the dark and after a 15-min light pulse; control yw;tim-GAL4
[2] = molecular target: hemagglutinin (HA)-tagged form of dCRY (Drosophila melanogaster) (UniProt O77059); experiment: as above; remark: listed apart in the source

BELLE, DEAD box RNA helicase (from UniProt Q9VHP0 1-798)
binding [1]: binds

B1: ME31B (protein, UniProt P23128 1-459)
chain: MMTEKLNSGHTNLTSKGIINDLQIAGNTSDDMGWKSKLKLPPKDNRFKTTDVTDTRGNEFEEFCLKRELLMGIFEKGWERPSPIQEAAIPIALSGKDVLARAKNGTGKTGAYCIPVLEQIDPTKDYIQALVMVPTRELALQTSQICIELAKHLDIRVMVTTGGTILKDDILRIYQKVQLIIATPGRILDLMDKKVADMSHCRILVLDEADKLLSLDFQGMLDHVILKLPKDPQILLFSATFPLTVKNFMEKHLREPYEINLMEELTLKGVTQYYAFVQERQKVHCLNTLFSKLQINQSIIFCNSTQRVELLAKKITELGYCCYYIHAKMAQAHRNRVFHDFRQGLCRNLVCSDLFTRGIDVQAVNVVINFDFPRMAETYLHRIGRSGRFGHLGIAINLITYEDRFDLHRIEKELGTEIKPIPKVIDPALYVANVGASVGDTCNNSDLNNSANEEGNVSK
binding [2]: binds

Like-named read-outs stand apart in the source and are kept apart here. Results are given in words; binding and its absence hold for the method and conditions named. In cells and extracts the contact can be indirect. A yes stands for co-enrichment or nearness to the bait. Other partners may have been found.
